Results as given in the supplement of paper PMC12823440, “Inhibitors supercharge kinase turnover through native proteolytic circuits” (Nature, 2025).
Where a name gives a salt, the structure may show the parent alone. The list shows a part of the results. The calls rarely recur for the same compound in another form.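 Kinases were expressed as nanoluciferase fusions in K562 cells and luminescence was read every 4 h between 2 and 18 h as percent of control, DMSO set to 100% and a positive control to 0%. A time point counts as decreased when the signal drops significantly (2 sigma). The hit call is the authors' own, does not follow from the count of time points alone, and its rule is not shown.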

Protein sequences, listed by entry. Tags and fused reporters are not part of them. Lines headed by an entry give the natural chain unless they say otherwise; changes in a name come on top.
UniProt Q01974, whole entry: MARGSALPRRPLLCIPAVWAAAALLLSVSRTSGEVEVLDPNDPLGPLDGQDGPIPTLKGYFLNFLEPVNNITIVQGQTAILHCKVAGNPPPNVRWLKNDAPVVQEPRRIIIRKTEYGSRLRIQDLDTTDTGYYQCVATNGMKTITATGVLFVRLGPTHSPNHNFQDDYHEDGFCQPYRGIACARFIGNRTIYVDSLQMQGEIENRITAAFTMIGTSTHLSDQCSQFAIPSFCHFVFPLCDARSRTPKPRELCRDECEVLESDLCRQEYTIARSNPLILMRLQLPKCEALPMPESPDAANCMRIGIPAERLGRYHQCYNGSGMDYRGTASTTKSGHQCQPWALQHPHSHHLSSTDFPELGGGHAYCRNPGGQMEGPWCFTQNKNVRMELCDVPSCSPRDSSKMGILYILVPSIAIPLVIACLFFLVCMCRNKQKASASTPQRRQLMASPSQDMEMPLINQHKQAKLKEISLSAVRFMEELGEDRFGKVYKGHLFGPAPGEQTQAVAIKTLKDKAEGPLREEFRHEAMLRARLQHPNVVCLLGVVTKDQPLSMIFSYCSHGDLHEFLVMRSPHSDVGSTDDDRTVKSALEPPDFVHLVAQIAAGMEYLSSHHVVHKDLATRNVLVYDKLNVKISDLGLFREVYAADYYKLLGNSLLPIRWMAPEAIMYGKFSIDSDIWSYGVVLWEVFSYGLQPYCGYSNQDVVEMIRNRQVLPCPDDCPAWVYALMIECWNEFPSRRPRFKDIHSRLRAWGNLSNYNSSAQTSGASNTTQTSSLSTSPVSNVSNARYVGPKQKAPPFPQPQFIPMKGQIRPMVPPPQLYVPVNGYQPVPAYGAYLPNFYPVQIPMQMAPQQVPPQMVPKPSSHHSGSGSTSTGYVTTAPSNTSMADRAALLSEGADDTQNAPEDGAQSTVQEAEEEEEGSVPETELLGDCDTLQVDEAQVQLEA
UniProt Q15418, whole entry: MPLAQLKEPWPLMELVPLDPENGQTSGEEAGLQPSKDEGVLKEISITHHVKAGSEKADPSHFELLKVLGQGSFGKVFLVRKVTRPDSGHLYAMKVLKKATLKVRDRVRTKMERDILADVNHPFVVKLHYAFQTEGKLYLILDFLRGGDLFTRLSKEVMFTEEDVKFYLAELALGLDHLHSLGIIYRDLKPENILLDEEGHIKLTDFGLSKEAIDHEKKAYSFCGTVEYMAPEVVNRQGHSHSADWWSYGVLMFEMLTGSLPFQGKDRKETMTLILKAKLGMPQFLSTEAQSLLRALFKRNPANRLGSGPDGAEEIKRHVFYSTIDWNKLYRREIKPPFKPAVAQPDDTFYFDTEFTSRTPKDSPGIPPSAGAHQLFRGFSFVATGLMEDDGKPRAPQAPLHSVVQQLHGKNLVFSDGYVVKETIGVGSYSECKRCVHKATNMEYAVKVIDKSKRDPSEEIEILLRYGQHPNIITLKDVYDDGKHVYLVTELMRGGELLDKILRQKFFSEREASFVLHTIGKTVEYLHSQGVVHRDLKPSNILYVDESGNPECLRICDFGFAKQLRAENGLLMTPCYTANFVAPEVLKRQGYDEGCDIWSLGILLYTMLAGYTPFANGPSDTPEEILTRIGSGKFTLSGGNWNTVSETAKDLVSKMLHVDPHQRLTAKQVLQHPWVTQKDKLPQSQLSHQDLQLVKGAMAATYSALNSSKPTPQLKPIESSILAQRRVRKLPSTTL
UniProt Q9NYA1, whole entry: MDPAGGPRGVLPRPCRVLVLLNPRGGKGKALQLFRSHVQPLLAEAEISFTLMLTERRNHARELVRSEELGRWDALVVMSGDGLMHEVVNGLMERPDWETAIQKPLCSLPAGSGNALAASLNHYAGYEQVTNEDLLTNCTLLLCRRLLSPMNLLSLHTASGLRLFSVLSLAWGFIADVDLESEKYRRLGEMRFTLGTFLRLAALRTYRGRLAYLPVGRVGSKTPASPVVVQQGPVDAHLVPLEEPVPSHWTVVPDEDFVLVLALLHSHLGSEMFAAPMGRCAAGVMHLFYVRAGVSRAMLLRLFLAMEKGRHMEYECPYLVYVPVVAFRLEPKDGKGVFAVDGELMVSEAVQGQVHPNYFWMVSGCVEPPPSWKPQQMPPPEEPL
UniProt Q9Y6E0: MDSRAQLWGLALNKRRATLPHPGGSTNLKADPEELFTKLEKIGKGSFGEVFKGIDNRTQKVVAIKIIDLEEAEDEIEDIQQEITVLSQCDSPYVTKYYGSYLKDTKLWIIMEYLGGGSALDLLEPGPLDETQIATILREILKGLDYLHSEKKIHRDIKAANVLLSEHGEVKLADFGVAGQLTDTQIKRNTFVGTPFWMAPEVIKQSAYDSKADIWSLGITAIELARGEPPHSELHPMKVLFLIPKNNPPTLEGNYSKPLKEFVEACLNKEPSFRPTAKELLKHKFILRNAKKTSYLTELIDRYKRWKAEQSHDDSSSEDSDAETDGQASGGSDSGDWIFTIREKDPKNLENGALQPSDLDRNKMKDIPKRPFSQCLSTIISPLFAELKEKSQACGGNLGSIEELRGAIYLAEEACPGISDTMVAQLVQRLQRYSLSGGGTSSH
UniProt Q15208: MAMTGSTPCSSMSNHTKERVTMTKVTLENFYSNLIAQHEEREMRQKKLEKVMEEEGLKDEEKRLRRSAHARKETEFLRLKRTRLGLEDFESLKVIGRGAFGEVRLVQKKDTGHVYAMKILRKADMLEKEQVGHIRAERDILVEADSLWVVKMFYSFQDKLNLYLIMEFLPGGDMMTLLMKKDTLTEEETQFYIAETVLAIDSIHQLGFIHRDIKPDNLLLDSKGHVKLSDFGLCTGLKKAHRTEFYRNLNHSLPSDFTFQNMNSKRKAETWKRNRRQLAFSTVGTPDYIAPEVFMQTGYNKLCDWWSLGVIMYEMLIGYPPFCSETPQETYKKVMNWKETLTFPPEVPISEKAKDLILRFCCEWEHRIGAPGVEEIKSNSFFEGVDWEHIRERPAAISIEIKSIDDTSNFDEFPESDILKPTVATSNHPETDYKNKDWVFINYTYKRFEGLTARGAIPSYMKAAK
UniProt P42680: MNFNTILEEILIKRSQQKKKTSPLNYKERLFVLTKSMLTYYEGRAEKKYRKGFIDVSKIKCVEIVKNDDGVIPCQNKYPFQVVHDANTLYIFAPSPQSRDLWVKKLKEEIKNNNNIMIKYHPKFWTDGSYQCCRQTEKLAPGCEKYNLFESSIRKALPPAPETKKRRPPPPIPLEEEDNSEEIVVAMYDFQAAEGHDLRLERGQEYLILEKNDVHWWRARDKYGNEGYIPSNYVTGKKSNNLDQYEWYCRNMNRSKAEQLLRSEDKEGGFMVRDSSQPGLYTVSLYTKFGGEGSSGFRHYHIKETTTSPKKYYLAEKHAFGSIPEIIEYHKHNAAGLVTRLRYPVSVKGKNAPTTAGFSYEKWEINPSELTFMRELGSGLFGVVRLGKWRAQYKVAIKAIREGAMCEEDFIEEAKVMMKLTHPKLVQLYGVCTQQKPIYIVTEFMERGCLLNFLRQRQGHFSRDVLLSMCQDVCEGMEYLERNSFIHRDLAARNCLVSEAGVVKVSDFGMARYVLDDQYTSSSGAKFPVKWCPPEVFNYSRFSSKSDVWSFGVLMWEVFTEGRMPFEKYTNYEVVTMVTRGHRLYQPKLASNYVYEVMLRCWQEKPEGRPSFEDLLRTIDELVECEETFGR
UniProt P29597: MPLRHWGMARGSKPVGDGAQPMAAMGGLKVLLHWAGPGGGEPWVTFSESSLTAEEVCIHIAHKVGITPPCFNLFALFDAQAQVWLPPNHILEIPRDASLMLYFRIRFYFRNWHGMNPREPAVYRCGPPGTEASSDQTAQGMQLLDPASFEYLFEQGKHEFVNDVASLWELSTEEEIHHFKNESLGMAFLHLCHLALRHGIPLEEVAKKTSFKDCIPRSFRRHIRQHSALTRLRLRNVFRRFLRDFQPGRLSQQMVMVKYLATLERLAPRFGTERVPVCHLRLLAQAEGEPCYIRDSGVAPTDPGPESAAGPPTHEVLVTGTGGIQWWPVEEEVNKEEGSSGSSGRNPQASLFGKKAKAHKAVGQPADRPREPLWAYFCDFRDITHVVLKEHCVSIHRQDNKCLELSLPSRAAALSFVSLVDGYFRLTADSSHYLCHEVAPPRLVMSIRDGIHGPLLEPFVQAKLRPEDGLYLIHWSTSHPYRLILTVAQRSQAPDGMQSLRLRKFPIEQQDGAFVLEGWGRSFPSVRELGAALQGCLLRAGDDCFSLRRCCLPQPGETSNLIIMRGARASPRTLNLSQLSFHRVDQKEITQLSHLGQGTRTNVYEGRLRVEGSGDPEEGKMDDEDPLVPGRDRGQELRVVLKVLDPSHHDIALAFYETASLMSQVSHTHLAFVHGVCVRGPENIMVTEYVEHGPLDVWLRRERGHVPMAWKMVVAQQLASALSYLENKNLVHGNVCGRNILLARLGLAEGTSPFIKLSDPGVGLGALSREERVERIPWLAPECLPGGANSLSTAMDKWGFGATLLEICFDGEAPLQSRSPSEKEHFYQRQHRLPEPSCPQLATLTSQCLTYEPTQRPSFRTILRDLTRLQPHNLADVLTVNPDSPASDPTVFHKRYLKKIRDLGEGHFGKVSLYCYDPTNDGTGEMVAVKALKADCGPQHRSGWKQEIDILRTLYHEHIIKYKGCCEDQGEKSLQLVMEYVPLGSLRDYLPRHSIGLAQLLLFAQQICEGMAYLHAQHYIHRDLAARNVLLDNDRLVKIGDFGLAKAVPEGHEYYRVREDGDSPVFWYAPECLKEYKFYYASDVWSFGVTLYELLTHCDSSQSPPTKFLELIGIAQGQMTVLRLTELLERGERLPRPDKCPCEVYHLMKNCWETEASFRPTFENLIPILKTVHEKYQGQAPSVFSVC
UniProt Q6PHR2: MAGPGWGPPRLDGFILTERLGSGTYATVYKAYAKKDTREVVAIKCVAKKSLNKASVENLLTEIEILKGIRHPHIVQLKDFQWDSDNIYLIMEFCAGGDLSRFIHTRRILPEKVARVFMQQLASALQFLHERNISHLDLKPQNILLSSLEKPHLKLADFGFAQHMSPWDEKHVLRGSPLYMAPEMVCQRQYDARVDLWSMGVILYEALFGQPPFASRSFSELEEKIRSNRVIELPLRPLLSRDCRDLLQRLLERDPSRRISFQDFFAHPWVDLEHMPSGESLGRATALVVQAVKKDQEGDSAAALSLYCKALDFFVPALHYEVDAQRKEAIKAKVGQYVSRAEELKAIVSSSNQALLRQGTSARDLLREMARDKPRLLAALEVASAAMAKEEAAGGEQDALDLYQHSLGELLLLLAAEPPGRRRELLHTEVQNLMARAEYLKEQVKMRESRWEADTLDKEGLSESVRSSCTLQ

Experiments:
Experiment in all cases: number of time points (of 5) at which kinase-Nluc abundance scored as decreased, DMSO-normalised (count); higher = more persistent destabilization
Conditions in all cases: K562; 2-18 h
ROR2 = ROR2 (UniProt Q01974)
RPS6KA1 = RPS6KA1 (UniProt Q15418)
SPHK1 = SPHK1 (UniProt Q9NYA1)
SRC = SRC (UniProt P12931)
STK24 = STK24 (UniProt Q9Y6E0)
STK38 = STK38 (UniProt Q15208)
SYK = SYK (UniProt P43405)
TEC = TEC (UniProt P42680)
TYK2 = TYK2 (UniProt P29597)
ULK3 = ULK3 (UniProt Q6PHR2)

Measured: number of time points

N#Cc1cn([C@@H]2O[C@H](CO)[C@@H](O)[C@H]2O)c2nc[nH]c(=O)c12 [Jaspamycin] (10 µM)
0: ROR2 | RPS6KA1 | SPHK1 | SRC | STK24 | STK38 | SYK | TEC | TYK2 | ULK3

Cn1sc(=O)n(Cc2ccccc2)c1=O (10 µM)
0: ROR2 | RPS6KA1 | SPHK1 | SRC | STK24 | STK38 | SYK | TEC | TYK2 | ULK3

Cc1cccc(-c2[nH]c(C(C)(C)C)nc2-c2ccc3c(c2)OCO3)n1 (2.5 µM)
0: ROR2 | RPS6KA1 | SPHK1 | SRC | STK24 | STK38 | SYK | TEC | TYK2 | ULK3

CC[C@H](C)[C@@H]1NC(=O)[C@@H]2CCCN2C(=O)[C@@H]2CCCN2C(=O)[C@@H]2CCCN2C(=O)[C@H](CC(C)C)NC(=O)CNC(=O)CNC(=O)[C@H](Cc2ccccc2)NC1=O [Heterophyllin B] (10 µM)
0: ROR2 | RPS6KA1 | SPHK1 | SRC | STK24 | STK38 | SYK | TEC | TYK2 | ULK3

Cc1c(Br)c(Br)c2c3c1nc(N1CCNCC1)n3CCC2 [SEL120-34A (monohydrochloride)] (2.5 µM)
0: ROR2 | RPS6KA1 | SPHK1 | SRC | STK24 | STK38 | SYK | TEC | TYK2 | ULK3

CCn1c2ccccc2c2cc(Nc3ccnc(NCCCN4CCOCC4)n3)ccc21 (2.5 µM)
0: ROR2 | RPS6KA1 | SPHK1 | SRC | STK24 | STK38 | SYK | TEC | TYK2 | ULK3

Cn1cc(C2=C(c3c4n(c5ccccc35)CCC(CN)C4)C(=O)NC2=O)c2ccccc21 (stereo not given) [Bisindolylmaleimide X (hydrochloride)] (2.5 µM)
0: ROR2 | RPS6KA1 | SPHK1 | SRC | STK24 | STK38 | SYK | TEC | TYK2 | ULK3

C1=N/C2=N/c3ccc(OCCN4CCCC4)c(c3)COC/C=C/COCc3cccc(c3)C(=C1)N2 [Pacritinib] (2.5 µM)
0: ROR2 | RPS6KA1 | SPHK1 | SRC | STK24 | STK38 | SYK | TEC | TYK2 | ULK3

O=C1c2cccc(O)c2C(=O)c2c(O)cccc21 [Danthron] (10 µM)
0: ROR2 | RPS6KA1 | SPHK1 | SRC | STK24 | STK38 | SYK | TEC | TYK2 | ULK3

O=C1c2c(O)cc(O)cc2O[C@H](c2cc(O)c(O)c(O)c2)[C@H]1O [Dihydromyricetin] (10 µM)
0: ROR2 | RPS6KA1 | SPHK1 | SRC | STK24 | STK38 | SYK | TEC | TYK2 | ULK3

O=C(CC(c1ccccc1)C(C(=O)O)C(=O)O)c1ccc(C(F)(F)F)cc1 (stereo not given) (10 µM)
0: ROR2 | RPS6KA1 | SPHK1 | SRC | STK24 | STK38 | SYK | TEC | TYK2 | ULK3

CC(=O)NCC(=O)N[C@@H](C)C(=O)N[C@@H](CCC(N)=O)C(=O)N[C@@H](Cc1ccccc1)C(=O)N[C@@H](CO)C(=O)N[C@@H](CCCCN)C(=O)N[C@H](C(=O)N[C@@H](C)C(=O)N[C@@H](C)C(=O)N[C@@H](CCCCN)C(=O)O)[C@@H](C)O (10 µM)
0: ROR2 | RPS6KA1 | SPHK1 | SRC | STK24 | STK38 | SYK | TEC | TYK2 | ULK3

C[C@@]12CCc3occc3[C@H]1CC[C@@]13C[C@@H](CC[C@H]12)[C@@](O)(CO)C3 [Cafestol] (10 µM)
0: ROR2 | RPS6KA1 | SPHK1 | SRC | STK24 | STK38 | SYK | TEC | TYK2 | ULK3

COc1ccc(C2CC(c3ccc(Cl)cc3)=NN2c2nc(-c3ccncc3)cs2)cc1 (stereo not given) [mTOR inhibitor-8] (10 µM)
0: ROR2 | RPS6KA1 | SPHK1 | SRC | STK24 | STK38 | SYK | TEC | TYK2 | ULK3

COc1ncc2cc(C(=O)Nc3cc(C(=O)NCc4cccc(Cl)c4)ccc3Cl)c(=O)[nH]c2n1 (2.5 µM)
0: ROR2 | RPS6KA1 | SPHK1 | SRC | STK24 | STK38 | SYK | TEC | TYK2 | ULK3

COc1ccc(COc2cc3oc(=O)c4cc(C(C)O)ccc4c3cc2OC)cc1 (stereo not given) [Palomid 529] (2.5 µM)
0: ROR2 | RPS6KA1 | SPHK1 | SRC | STK24 | STK38 | SYK | TEC | TYK2 | ULK3

Cc1cc(F)c(Nc2ncnc3cc(OCc4ccccc4)ccc23)cc1O (10 µM)
0: ROR2 | RPS6KA1 | SPHK1 | SRC | STK24 | STK38 | SYK | TEC | TYK2 | ULK3

O=S(=O)(N=Cc1c(O)ccc2ccccc12)c1cccs1 (10 µM)
0: ROR2 | RPS6KA1 | SPHK1 | SRC | STK24 | STK38 | SYK | TEC | TYK2 | ULK3

C[C@@H]1CN(Cc2cn[nH]c2-c2ccc(C#N)cc2)CCN1c1ccc(C(F)(F)F)cn1 (2.5 µM)
0: ROR2 | RPS6KA1 | SPHK1 | SRC | STK24 | STK38 | SYK | TEC | TYK2 | ULK3

CN(C)C(=O)c1cc2cnc(Nc3ccc(NC(=O)C4(C(=O)Nc5ccc(F)cc5)CC4)cc3)nc2n1C1CCCC1 (2 µM)
3: TYK2
0: ROR2 | RPS6KA1 | SPHK1 | STK24 | STK38 | SYK | TEC | ULK3
2: SRC

CNC(=O)Nc1cc(Oc2cncc(C)c2)c(-c2ccc(OCC(C)(C)O)nc2)cn1 (2.5 µM)
0: ROR2 | RPS6KA1 | SPHK1 | SRC | STK24 | STK38 | SYK | TEC | TYK2 | ULK3

O=C(Nc1ncc(SCCN2CCCC2)s1)[C@]1(c2ccc(S(=O)(=O)C3CC3)cc2)C[C@H]1C1CCCCC1 [Globalagliatin] (2.5 µM)
0: ROR2 | RPS6KA1 | SPHK1 | SRC | STK24 | STK38 | SYK | TEC | TYK2 | ULK3

COc1cccc(Nc2ncnn3ccc(CN4CC[C@@H](N)[C@H](O)C4)c23)c1 (2.5 µM)
0: ROR2 | RPS6KA1 | SPHK1 | SRC | STK24 | STK38 | SYK | TEC
3: TYK2 | ULK3

Cn1cc(-c2ccc3ncc(Cc4ccc5ncccc5c4)n3n2)cn1 (10 µM)
0: ROR2 | RPS6KA1 | SPHK1 | SRC | STK24 | STK38 | SYK | TEC | TYK2 | ULK3

NC(=O)c1cccc2c(N[C@H](CN3CCC3)c3ccc(Cl)c(C(F)(F)F)c3)ncnc12 (10 µM)
0: ROR2 | RPS6KA1 | SPHK1 | SRC | STK24 | STK38 | SYK | TEC | TYK2 | ULK3

Cc1ccc(Nc2c(C(N)=O)cnc3cc(-c4ccncc4)ccc23)cc1C [cFMS Receptor Inhibitor II] (10 µM)
0: ROR2 | RPS6KA1 | SPHK1 | SRC | STK24 | STK38 | SYK | TEC | TYK2 | ULK3

O=C(Nc1nccs1)C(c1cc(F)ccc1O)N1Cc2ccccc2C1=O (stereo not given) (10 µM)
0: ROR2 | RPS6KA1 | SPHK1 | SRC | STK24 | STK38 | SYK | TEC | TYK2 | ULK3

Cc1ccc(-n2c(-c3ccc(O)cc3O)n[nH]c2=O)cc1 (10 µM)
5: TYK2 | ULK3
0: ROR2 | RPS6KA1 | SPHK1 | SRC | STK24 | SYK
3: TEC
2: STK38

CC(=O)Nc1nc(C)c(-c2cc3c(c(S(C)(=O)=O)c2)C(=O)N([C@@H](C)C2CC2)C3)s1 (2.5 µM)
0: ROR2 | RPS6KA1 | SPHK1 | SRC | STK24 | STK38 | SYK | TEC | TYK2 | ULK3

3 entries from above, arranged by heavy-atom count, falling.
COc1ccc(COc2cc3oc(=O)c4cc(C(C)O)ccc4c3cc2OC)cc1 (stereo not given) [Palomid 529] (2.5 µM)
0: ROR2 | RPS6KA1 | SPHK1 | SRC | STK24 | STK38 | SYK | TEC | TYK2 | ULK3

Cn1cc(-c2ccc3ncc(Cc4ccc5ncccc5c4)n3n2)cn1 (10 µM)
0: ROR2 | RPS6KA1 | SPHK1 | SRC | STK24 | STK38 | SYK | TEC | TYK2 | ULK3

O=C1c2cccc(O)c2C(=O)c2c(O)cccc21 [Danthron] (10 µM)
0: ROR2 | RPS6KA1 | SPHK1 | SRC | STK24 | STK38 | SYK | TEC | TYK2 | ULK3

(list continues)

Cn1cc(-c2cn3nccc3c(-c3cnn([C@]4(CC#N)C[C@@H](C#N)C4)c3)n2)cn1 (10 µM)
0: ROR2 | RPS6KA1 | SPHK1 | SRC | STK24 | STK38 | SYK | TEC | TYK2 | ULK3

N#Cc1c[nH]c2ccc(-c3ccc(-c4c(O)cccc4O)cc3)cc12 (10 µM)
0: ROR2 | RPS6KA1 | SPHK1 | SRC | STK24 | STK38 | SYK | TEC | TYK2 | ULK3

CN(C)CCCn1cc(C2=C(c3c[nH]c4ccccc34)C(=O)NC2=O)c2ccccc21 [Bisindolylmaleimide I] (2.5 µM)
0: ROR2 | RPS6KA1 | SPHK1 | SRC | STK24 | STK38 | SYK | TEC | TYK2 | ULK3

CC(C)=CCC/C(C)=C/CC/C(C)=C/CSc1ccccc1C(=O)O [Salirasib] (10 µM)
0: ROR2 | RPS6KA1 | SPHK1 | SRC | STK24 | STK38 | SYK | TEC | TYK2 | ULK3

O=C(Nc1nc2cccc(-c3ccc(CN4CCS(=O)(=O)CC4)cc3)n2n1)C1CC1 [Filgotinib] (2.5 µM)
0: ROR2 | RPS6KA1 | SPHK1 | SRC | STK24 | STK38 | SYK | TEC | TYK2 | ULK3

Cc1occ2c1C(=O)c1c(O)ccc(O)c1C2 (2.5 µM)
0: ROR2 | RPS6KA1 | SPHK1 | SRC | STK24 | STK38 | SYK | TEC | TYK2 | ULK3
